Laboratory results from paper PMC4558782.
Results are given in words; binding and its absence hold for the method and conditions named. In cells and extracts the contact can be indirect. Some entries that bind do so weakly or less than the wild type.

Protein sequences, listed by entry. Tags and fused reporters are not part of them.
UniProt P49841: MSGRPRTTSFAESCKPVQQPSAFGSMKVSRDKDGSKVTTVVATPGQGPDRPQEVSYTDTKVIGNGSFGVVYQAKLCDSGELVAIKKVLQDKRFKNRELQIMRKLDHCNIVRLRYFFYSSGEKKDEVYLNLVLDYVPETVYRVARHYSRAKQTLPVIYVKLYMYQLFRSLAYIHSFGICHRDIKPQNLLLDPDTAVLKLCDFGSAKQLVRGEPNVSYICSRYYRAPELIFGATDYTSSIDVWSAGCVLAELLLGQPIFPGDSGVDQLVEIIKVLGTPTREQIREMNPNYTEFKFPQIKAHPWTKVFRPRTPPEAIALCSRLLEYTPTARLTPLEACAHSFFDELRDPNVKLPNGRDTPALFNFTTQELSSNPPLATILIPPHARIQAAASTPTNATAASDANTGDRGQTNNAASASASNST
UniProt Q14289: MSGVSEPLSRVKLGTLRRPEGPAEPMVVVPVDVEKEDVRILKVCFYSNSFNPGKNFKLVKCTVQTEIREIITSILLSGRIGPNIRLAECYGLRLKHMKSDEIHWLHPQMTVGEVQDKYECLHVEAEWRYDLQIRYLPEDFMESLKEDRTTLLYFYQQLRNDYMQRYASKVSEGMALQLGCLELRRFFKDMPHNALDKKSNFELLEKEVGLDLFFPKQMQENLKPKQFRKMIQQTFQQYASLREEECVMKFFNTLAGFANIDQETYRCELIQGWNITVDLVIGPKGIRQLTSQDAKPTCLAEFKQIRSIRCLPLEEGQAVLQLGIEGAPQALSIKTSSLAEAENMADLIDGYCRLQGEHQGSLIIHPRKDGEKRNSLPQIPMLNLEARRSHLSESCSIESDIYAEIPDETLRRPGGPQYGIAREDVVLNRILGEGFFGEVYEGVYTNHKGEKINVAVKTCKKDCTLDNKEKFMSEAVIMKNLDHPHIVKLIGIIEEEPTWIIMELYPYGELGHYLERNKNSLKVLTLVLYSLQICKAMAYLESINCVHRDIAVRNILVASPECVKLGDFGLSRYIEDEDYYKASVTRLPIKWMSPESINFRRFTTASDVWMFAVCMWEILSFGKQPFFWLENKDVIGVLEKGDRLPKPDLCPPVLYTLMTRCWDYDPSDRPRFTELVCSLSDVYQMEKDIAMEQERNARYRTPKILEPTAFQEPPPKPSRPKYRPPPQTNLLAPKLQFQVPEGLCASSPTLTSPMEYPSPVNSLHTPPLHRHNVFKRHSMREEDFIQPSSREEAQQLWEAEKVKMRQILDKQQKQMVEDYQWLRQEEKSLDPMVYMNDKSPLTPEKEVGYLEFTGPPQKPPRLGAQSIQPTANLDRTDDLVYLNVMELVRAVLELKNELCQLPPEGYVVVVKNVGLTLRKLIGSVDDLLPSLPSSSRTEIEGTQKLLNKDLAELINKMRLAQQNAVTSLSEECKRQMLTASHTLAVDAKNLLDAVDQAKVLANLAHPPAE
UniProt Q05397: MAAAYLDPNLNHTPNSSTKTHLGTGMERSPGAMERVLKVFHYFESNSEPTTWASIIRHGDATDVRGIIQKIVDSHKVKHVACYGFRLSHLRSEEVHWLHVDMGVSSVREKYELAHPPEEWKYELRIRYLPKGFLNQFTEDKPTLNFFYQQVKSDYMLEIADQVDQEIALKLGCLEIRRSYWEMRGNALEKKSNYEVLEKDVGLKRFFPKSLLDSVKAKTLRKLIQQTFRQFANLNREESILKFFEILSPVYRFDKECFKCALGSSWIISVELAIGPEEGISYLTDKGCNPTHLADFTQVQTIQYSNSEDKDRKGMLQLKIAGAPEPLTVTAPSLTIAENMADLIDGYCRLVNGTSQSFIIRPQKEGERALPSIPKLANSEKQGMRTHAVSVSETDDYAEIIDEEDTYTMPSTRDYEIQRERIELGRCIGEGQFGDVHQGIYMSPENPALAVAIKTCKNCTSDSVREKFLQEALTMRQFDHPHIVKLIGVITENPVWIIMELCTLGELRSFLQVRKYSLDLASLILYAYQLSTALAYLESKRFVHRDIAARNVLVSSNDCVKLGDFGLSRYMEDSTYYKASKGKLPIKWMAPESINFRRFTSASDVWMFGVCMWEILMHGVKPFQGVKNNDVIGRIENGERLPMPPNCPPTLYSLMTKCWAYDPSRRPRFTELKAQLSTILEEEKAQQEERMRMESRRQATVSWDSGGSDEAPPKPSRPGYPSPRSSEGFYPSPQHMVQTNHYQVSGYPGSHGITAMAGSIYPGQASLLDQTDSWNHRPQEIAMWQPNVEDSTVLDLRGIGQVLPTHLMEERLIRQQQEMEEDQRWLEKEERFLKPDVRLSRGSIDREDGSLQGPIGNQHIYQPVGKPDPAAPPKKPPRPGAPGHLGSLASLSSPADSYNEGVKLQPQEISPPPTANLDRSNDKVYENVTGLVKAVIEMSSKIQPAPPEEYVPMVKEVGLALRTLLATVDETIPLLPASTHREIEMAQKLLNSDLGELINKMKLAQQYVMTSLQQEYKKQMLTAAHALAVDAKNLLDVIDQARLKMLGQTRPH

Biological target: GSK3β, endogenous in SW480 and HT-29 cells (human (endogenous in SW480 and HT-29)) (UniProt P49841)
Assay: co-IP; endogenous GSK3β immunoprecipitated with anti-GSK3β from SW480 and HT29 cells, IB with anti-PYK2 and anti-FAK; normal IgG as IP control

| binding | Substance |
| --- | --- |
| binds | PYK2, endogenous in SW480 cells (from UniProt Q14289 1-1009) (enzyme) |
| binds | FAK, endogenous in HT-29 cells (from UniProt Q05397 1-1052) (enzyme) |
